Results reported in article PMC12691606.
Results are given in words; binding and its absence hold for the method and conditions named. Binding seen in cells or lysates may run through a third protein. A yes stands for co-enrichment or nearness to the bait. Other partners may have been found.

Target: RGNNV capsid protein (CP) of the virus (red-spotted grouper nervous necrosis virus (RGNNV))
Test: affinity purification with mass spectrometry; GS cells infected with RGNNV (MOI = 1) or mock-infected, 24 h post-infection; lysate incubated with resin immobilized with anti-RGNNV-CP mAb at 4°C overnight; LC-MS/MS

B1: Epinephelus coioides CXC chemokine receptor 4b, endogenous in GS cells (receptor, UniProt G0XMT3 1-367)
chain: MSYYEHIVFDYDLNDTGSGSGSGDMGVDLQELCDMEHVITDELQQVFLPVVYALIFILGITGNGLVVIVLGCQRRSKCSLTDRYRLHLSAADLLFVLALPFWAVDAALADWRFGEVTCVGVNVIYTVNLYGSVLILAFISLDRYLAVVRATDTNTGELRQLLAHKLVYVGAWLPAGLLAVPDLIYARTQEGGEGATLCQRFYPADNGPIWVAVFHLQLVLVGLVIPGLVLLVCYCVIVTRLTRGPLGGQRQKRRAVRTTIALVLCFFVCWLPYGAGISVDALLRLEVLPRSCRLEAILGVWLAVAEPMAFAHCCLNPLLYAFLGAGFKSSARRALTLSRASSLKILPRRRPGASTTTESESSSLHSS
  binding: binds
